Experimental data: article PMC7071076, “Antibacterial Activity and Pharmacokinetic Profile of a Promising Antibacterial Agent: 22-(2-Amino-phenylsulfanyl)-22-Deoxypleuromutilin” (Molecules, 2020)
“And” between values parts separate entries of the source, which are not always exact repeats. Equal values may be shown once. The source gives many values for each of these; only a part stands here.

Test: Pharmacokinetic study in mice
Type: in vivo
Conditions: mice 1-8 in order
Procedure: Pharmacokinetic parameters of amphenmulin were measured according to previous reports with some modifications. Each group consisted of eight female SPF-ICR mice. Amphenmulin (1 mg/mL) was administered intravenously, intraperitoneally, and orally at a dose of 10 mg/kg, respectively. Formulation of amphenmulin was a filtered solution in 5% DMSO, 5% Tween-80, and 90% normal saline. Serial samples (each 0.2 mL) were collected from the ocular venous plexus and placed in a plastic centrifuge tube. The blood samples were placed at room temperature for 20 min and transferred to a 4 °C refrigerator for 12 h to promote blood coagulation. Then samples were centrifuged at 2000 r/min for 10 min to get serum. Serum samples were frozen at −20°C. 100 µL of samples was accurately absorbed and mixed with 100 µL of acetonitrile in a 1.5 mL centrifuge tube. The sample was mixed vigorously and centrifuged at 12,000 rpm for 10 min. The supernatant was transferred, filtered through a 0.22 μm cellulose membrane filter and used for LC-MS/MS analysis. Equipment and analysis conditions were shown in supplemental data. The pharmacokinetic parameters of amphenmulin were determined from the mean plasma concentration with noncompartmental analysis in WinNonlin 5.2 software (Pharsight, Mountain View, CA, USA). Data were shown as mean ± standard deviation (SD).

SMILES: C=C[C@]1(C)C[C@@H](OC(=O)CSc2ccccc2N)[C@]2(C)[C@H](C)CC[C@]3(CCC(=O)[C@H]32)[C@@H](C)[C@@H]1O [Amphenmulin, 22-(2-amino-phenylsulfanyl)-22-deoxypleuromutilin]
- plasma concentration, individual mice (intraperitoneal 10 mg/kg, 0.75 h): 0.71 µg/mL and 1.01 µg/mL and 0.92 µg/mL and 1.32 µg/mL and 0.62 µg/mL and 0.51 µg/mL
- plasma concentration, individual mice (intraperitoneal 10 mg/kg, 1 h): 0.29 µg/mL and 0.57 µg/mL and 0.44 µg/mL and 0.69 µg/mL and 0.58 µg/mL and 0.91 µg/mL and 0.83 µg/mL and 0.31 µg/mL
- plasma concentration, individual mice (intraperitoneal 10 mg/kg, 2 h): 0.25 µg/mL and 0.29 µg/mL and 0.12 µg/mL and 0.60 µg/mL and 0.42 µg/mL and 0.51 µg/mL and 0.32 µg/mL and 0.17 µg/mL
- plasma concentration, individual mice (intraperitoneal 10 mg/kg, 4 h): 0.08 µg/mL and 0.05 µg/mL and 0.06 µg/mL and 0.31 µg/mL and 0.12 µg/mL and 0.42 µg/mL and 0.15 µg/mL and 0.25 µg/mL
- plasma concentration, individual mice (intraperitoneal 10 mg/kg, 6 h): 0.05 µg/mL and 0.11 µg/mL (2×) and 0.09 µg/mL and 0.04 µg/mL and 0.31 µg/mL and 0.08 µg/mL and 0.21 µg/mL
- plasma concentration, individual mice (intraperitoneal 10 mg/kg, 8 h): 0.04 µg/mL and 0.07 µg/mL and 0.06 µg/mL (2×) and 0.12 µg/mL and 0.02 µg/mL and 0.16 µg/mL and 0.05 µg/mL
- plasma concentration, individual mice (intraperitoneal 10 mg/kg, 12 h): 0.02 µg/mL (2×) and 0.03 µg/mL and 0.01 µg/mL (3×) and 0.04 µg/mL and 0.05 µg/mL
- plasma concentration, individual mice (oral 10 mg/kg, 0.25 h, 10 mg/kg): 0.06 µg/mL (2×) and 0.09 µg/mL and 0.12 µg/mL and 0.11 µg/mL and 0.20 µg/mL and 0.07 µg/mL and 0.04 µg/mL
- plasma concentration, individual mice (oral 10 mg/kg, 0.5 h, 10 mg/kg): 0.34 µg/mL and 0.28 µg/mL and 0.48 µg/mL and 0.38 µg/mL and 0.32 µg/mL and 0.11 µg/mL and 0.29 µg/mL and 0.31 µg/mL
- plasma concentration, individual mice (oral 10 mg/kg, 1 h, 10 mg/kg): 0.51 µg/mL and 0.45 µg/mL and 0.37 µg/mL and 0.81 µg/mL and 0.57 µg/mL and 0.24 µg/mL and 0.38 µg/mL and 0.61 µg/mL
- plasma concentration, individual mice (oral 10 mg/kg, 2 h, 10 mg/kg): 0.26 µg/mL and 0.41 µg/mL and 0.11 µg/mL and 0.56 µg/mL and 0.69 µg/mL and 0.12 µg/mL and 0.25 µg/mL and 0.45 µg/mL
- plasma concentration, individual mice (oral 10 mg/kg, 3 h, 10 mg/kg): 0.21 µg/mL and 0.11 µg/mL and 0.52 µg/mL and 0.41 µg/mL and 0.23 µg/mL and 0.08 µg/mL and 0.09 µg/mL and 0.18 µg/mL
- plasma concentration, individual mice (oral 10 mg/kg, 4 h, 10 mg/kg): 0.15 µg/mL (2×) and 0.13 µg/mL and 0.07 µg/mL and 0.31 µg/mL and 0.05 µg/mL and 0.06 µg/mL and 0.12 µg/mL
- plasma concentration, individual mice (oral 10 mg/kg, 6 h, 10 mg/kg): 0.08 µg/mL and 0.05 µg/mL and 0.07 µg/mL (4×) and 0.15 µg/mL and 0.06 µg/mL
- plasma concentration, individual mice (oral 10 mg/kg, 8 h, 10 mg/kg): 0.05 µg/mL (2×) and 0.04 µg/mL (2×) and 0.02 µg/mL and 0.12 µg/mL and 0.03 µg/mL and 0.06 µg/mL
- plasma concentration, individual mice (oral 10 mg/kg, 12 h, 10 mg/kg): 0.01 µg/mL (4×) and 0.02 µg/mL (2×) and 0.04 µg/mL and 0.03 µg/mL
